{
  "source": "patent US20060199789A1",
  "about": "“medical composition” (Kyowa Hakko Kogyo Co., Ltd., priority 2003, published 2006)",
  "key": {"eosinophils in BALF": {"system": "eosinophils in BALF", "assay": "Antigen-induced respiratory eosinophil infiltration in rat (BALF)", "assay_type": "in vivo, BN rats", "conditions": "Compound (I) 30 μg/rat, budesonide 10 μg/rat, sole or combined", "description": "(§1) Inhibitory Effect of Combined Administration of Compound (I) and Steroid Agent on Antigen-Induced Respiratory Eosinophil and Neutrophil Infiltration in Rat\n(§2) The test was conducted according to a known method (Pulmonary Pharmacology, vol. 8, pp. 83-89 (1995)).\n(§3) In the test, 6-week-old male BN rats (Charles River Japan) were used. The rats were placed in aluminum cages each containing 5 to 6 rats in a breeding room at room temperature (19° C. to 25° C.) and a humidity of 30% to 70% under illumination for 12 hours a day (7 a.m. to 7 p.m.) and bred by free intake of commercially available feeds and water.\n(§4) A preparation (Compound (I)-lactose preparation) containing 5 mg of lactose (produced by DVM Corporation) to 1 mg of Compound (I) was prepared, and a suspension for administering Compound (I) was prepared by suspending the Compound (I)-lactose preparation in a 0.125 wt/vol % tyloxapol aqueous solution (ALEVAIRE: registered trade mark, produced by Azwell Inc.) so that the concentration of Compound (I) was 150 μg/mL. […]\n(§5) The total number of the leukocytes in BALF was measured with an automatic leukocyte counter (manufactured by Nihon Kohden Corporation). […]"}, "neutrophils in BALF": {"system": "neutrophils in BALF", "assay": "Antigen-induced respiratory neutrophil infiltration in rat (BALF)", "assay_type": "in vivo, BN rats", "conditions": "Compound (I) 30 μg/rat, budesonide 10 μg/rat", "description": "as §1, §2, §3, §4, §5"}},
  "note": "At least one structure is not confirmed: it was looked up by name or label, or the drawing left a doubt.",
  "data": [
    {"smiles": "CCCC1O[C@@H]2C[C@H]3[C@@H]4CCC5=CC(=O)C=C[C@]5(C)[C@H]4[C@@H](O)C[C@]3(C)[C@]2(C(=O)CO)O1", "note": "(stereo partly drawn) [Budesonide, budesonide]", "values": [
      {"measurement": "Inhibitory effect against increases in the number of eosinophils in BALF (in words)", "setting": "eosinophils in BALF", "value": "inhibitory effect against increases in the number of eosinophils was exhibited"},
      {"measurement": "Effect on the number of neutrophils in BALF (in words)", "setting": "neutrophils in BALF; sole or combined", "value": "not significantly affected"},
      {"measurement": "Inhibition ratio (number of neutrophils)", "setting": "neutrophils in BALF; OVA-sensitized BN rats, intrabronchial 30 min before antigen challenge, BAL 24 h after, N.E. = No effect", "value": "N.E.*"}
    ]}
  ]
}
